Assay [1] deals with T1, GST-DDX6 (wild type), recombinant (UniProt P54823).
T1 sequence: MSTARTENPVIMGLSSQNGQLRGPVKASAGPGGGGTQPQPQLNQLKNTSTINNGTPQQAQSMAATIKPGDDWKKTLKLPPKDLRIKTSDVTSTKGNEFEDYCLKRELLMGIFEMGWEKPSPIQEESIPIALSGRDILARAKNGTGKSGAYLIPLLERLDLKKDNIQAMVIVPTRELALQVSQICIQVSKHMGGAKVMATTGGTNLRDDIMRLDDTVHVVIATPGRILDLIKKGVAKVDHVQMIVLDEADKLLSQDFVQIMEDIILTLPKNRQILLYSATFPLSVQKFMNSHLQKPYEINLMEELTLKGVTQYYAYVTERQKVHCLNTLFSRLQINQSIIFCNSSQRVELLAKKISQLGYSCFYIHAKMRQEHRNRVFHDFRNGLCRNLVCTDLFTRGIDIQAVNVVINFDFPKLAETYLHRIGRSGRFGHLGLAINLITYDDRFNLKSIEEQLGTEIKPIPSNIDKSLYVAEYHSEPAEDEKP
Kind of assay: pull-down; GST fusion proteins (10 μg) immobilised on Glutathione Sepharose 4B, incubated with purified His-MBP-DDX3X^166-590 in RIPA buffer; western blot; both purified. A general note: In western blotting, separated proteins are transferred to a membrane and probed.

Chains of the proteins cited; added tags and fusions are not shown. Lines headed by an entry give the natural chain unless they say otherwise; changes in a name come on top.
UniProt Q62167: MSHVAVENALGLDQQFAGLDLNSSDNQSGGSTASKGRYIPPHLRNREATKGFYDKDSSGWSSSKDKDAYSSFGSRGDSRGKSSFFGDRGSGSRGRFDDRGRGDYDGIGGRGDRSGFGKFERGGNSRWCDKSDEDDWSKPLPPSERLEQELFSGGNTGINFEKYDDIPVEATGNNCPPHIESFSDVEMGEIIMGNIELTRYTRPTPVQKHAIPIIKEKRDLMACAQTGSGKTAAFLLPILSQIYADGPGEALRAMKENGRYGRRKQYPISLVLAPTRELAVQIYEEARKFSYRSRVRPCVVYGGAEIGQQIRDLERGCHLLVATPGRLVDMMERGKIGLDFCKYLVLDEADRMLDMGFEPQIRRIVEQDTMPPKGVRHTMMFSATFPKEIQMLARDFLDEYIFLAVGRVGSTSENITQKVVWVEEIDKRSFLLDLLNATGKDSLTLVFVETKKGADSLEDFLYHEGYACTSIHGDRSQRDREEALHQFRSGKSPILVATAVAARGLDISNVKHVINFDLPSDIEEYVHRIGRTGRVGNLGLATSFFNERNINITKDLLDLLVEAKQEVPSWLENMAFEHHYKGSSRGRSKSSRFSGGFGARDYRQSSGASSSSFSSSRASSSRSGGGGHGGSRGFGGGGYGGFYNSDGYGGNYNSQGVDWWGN
UniProt Q6ZQ08: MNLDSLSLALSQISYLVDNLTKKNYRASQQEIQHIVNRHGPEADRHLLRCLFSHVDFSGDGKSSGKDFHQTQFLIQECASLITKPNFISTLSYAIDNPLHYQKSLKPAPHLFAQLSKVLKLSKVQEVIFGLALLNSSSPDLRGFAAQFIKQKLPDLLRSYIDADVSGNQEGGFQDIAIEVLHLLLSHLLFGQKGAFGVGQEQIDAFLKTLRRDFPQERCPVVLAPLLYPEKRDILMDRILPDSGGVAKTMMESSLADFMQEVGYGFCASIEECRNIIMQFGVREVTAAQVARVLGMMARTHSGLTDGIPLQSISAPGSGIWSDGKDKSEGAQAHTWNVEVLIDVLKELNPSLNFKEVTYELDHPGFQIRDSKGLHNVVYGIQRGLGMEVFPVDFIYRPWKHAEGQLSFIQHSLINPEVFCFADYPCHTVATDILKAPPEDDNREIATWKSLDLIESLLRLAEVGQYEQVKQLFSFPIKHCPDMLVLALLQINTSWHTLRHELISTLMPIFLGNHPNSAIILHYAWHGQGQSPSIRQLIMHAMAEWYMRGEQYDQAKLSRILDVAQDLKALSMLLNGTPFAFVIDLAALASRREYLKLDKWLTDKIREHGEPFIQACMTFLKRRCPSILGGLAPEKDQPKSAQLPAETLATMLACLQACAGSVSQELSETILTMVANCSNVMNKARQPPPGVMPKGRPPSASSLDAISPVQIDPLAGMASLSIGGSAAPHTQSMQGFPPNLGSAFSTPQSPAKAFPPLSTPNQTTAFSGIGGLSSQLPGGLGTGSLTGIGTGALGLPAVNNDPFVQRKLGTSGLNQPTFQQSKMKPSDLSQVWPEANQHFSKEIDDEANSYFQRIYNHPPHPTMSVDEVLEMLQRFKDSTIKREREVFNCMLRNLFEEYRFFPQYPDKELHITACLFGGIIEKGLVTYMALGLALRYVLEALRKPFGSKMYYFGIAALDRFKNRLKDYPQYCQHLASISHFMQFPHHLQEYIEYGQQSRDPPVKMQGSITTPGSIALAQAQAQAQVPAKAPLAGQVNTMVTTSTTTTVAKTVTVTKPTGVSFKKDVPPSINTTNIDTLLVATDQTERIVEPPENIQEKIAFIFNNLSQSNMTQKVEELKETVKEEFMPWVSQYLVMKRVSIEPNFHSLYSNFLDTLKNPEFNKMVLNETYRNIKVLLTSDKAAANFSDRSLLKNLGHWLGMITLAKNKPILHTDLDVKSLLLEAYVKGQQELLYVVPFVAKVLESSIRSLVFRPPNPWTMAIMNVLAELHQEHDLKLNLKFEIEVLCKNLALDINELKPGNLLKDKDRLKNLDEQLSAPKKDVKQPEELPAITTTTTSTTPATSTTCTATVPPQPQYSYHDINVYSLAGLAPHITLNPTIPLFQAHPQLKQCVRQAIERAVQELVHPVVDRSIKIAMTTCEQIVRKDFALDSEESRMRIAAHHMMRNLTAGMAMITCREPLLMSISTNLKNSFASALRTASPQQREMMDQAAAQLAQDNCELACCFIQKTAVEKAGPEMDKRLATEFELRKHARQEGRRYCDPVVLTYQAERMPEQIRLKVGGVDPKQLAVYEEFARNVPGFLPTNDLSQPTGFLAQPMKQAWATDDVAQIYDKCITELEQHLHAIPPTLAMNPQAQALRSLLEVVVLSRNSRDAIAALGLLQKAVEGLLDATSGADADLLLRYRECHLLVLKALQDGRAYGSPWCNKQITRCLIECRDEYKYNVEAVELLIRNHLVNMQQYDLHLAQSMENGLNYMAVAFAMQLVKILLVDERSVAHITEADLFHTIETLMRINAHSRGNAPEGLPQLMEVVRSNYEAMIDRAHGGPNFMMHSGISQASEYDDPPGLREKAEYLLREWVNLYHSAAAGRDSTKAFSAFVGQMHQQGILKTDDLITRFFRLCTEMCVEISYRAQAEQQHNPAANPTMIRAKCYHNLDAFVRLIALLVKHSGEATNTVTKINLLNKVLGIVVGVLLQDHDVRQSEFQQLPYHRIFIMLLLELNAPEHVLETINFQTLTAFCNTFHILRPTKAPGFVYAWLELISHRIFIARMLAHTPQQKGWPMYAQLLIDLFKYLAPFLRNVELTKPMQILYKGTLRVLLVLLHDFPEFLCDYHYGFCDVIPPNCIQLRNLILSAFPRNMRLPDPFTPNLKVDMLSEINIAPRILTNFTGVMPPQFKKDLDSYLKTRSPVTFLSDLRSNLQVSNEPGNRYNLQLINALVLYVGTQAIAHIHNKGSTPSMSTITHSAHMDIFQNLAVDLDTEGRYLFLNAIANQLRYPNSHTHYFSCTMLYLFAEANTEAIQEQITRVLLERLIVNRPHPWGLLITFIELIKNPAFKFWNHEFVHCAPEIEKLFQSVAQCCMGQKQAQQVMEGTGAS
UniProt O00303: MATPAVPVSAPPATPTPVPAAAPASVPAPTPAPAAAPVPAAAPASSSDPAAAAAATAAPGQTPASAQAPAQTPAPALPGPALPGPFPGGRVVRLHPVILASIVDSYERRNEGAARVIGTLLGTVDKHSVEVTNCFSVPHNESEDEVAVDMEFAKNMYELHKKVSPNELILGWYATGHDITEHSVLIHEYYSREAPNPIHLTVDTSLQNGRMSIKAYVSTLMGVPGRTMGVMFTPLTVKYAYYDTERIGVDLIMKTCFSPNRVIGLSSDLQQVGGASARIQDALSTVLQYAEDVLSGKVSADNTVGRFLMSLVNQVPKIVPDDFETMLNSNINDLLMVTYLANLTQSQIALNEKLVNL

Assay [2] concerns the target T2, wild-type DDX6 of the co-IP experiments of Supplementary Fig. S6 (UniProt P54823).
T2 sequence: T1 sequence
Description: co-IP; co-IP of wild-type, truncated and mutant DDX6 proteins (Supplementary Fig. S6A, B); cells not given; western blot.

Assay [3] has as its target T3, Flag-tagged DDX6 (wild type) expressed in DDX6 cKO mESCs (UniProt P54823).
T3 sequence: T1 sequence
Description: co-IP; anti-Flag M2 affinity gel from lysates of genetically rescued cKO mESCs expressing Flag-DDX6 or Flag-DDX3X at endogenous levels; 50 mM Tris pH 7.5, 150 mM NaCl, 1.0% NP-40, 10% glycerol, 1 mM EDTA; western blot.

Assay [4] concerns the target T4, GST-DDX6 (86–468), bacterially expressed (UniProt P54823).
T4 sequence: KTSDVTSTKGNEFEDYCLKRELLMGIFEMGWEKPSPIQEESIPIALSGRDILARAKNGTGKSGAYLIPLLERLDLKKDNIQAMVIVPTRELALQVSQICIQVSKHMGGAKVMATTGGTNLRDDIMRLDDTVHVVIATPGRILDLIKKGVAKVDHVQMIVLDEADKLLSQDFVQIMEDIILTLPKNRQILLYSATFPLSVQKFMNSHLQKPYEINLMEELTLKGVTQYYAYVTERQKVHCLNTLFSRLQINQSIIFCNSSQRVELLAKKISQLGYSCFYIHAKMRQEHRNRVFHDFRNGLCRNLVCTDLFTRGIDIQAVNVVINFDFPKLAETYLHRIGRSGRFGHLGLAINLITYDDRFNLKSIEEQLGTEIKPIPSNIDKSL
Kind of assay: pull-down; GST-DDX6 fusion proteins (10 μg) immobilised on Glutathione Sepharose 4B, incubated with lysates of HA-DDX3X-transfected 293T cells in RIPA buffer; western blot; only the target purified.

The target in assay [5] is T5, Flag-DDX6 (86–468), RecA1-RecA2 domain, in 293T cells (UniProt P54823).
T5 sequence: T4 sequence
Kind of assay: co-IP; anti-Flag M2 affinity gel from 293T cells transfected with DDX6 truncation mutants and HA-DDX3X; 50 mM Tris pH 7.5, 150 mM NaCl, 1.0% NP-40, 10% glycerol, 1 mM EDTA; western blot.

Assay [6] concerns the target Flag-DDX3X affinity-purified from HEK293T cells (UniProt Q62167). Description: pull-down; Flag-DDX3X affinity-purified and immobilised on M2 agarose beads, incubated with lysates of HA-eIF3F-expressing HEK293T cells (150 mM KCl); western blot of eIF3 subunits; only the target purified.

This note sets out measurements from article PMC12418388.

Results are given in words; binding and its absence hold for the method and conditions named. For some of these results: Binding seen in cells or lysates may run through a third protein. Some binding calls cover weakened binding; strength is not graded here. For some of these results: Tags and fused reporters may be left off the sequences shown.

Regarding “6xHis-MBP-DDX3X^166-590 (from UniProt Q62167 166-590) (domain or fragment)”, in assay [1], the binding result is “binds”.

Consider CNOT1 (from UniProt Q6ZQ08 1-2375), for which the binding entry in assay [2] is recorded as “binds”. Still for that read-out and setting: the value for “DDX3X found in the co-IP experiments of Supplementary Fig. S6 (from UniProt Q62167 1-662)” was “binds”. For “DDX3X, endogenous in mESCs (from UniProt Q62167 1-662)”, in assay [3], the binding result is given as “binds”. For the substance “HA-DDX3X expressed in 293T cells (from UniProt Q62167 1-662)”, the binding entry in assay [4] and in assay [5] was “binds” in each case. With HA-eIF3F (from UniProt O00303 1-357), the binding entry in assay [6] was “binds”.
